Key:
[1] = Example 25: UV offset printing ink on plastic substrate; parameters: key to Odor: 1: odorless; 2: odorous; 3: irritatingly odorous; conditions: for Exposure demand mJ/cm^2: 2 μm, 250-450 nm; for Adherence: crosscut test GB9286-88; for Odor: residual odor of cured film; for Yellowing: value of Δb
[2] = Example 24: UV flexographic printing ink on white paperboard; parameters: key: 1: odorless; 2: odorous; 3: irritatingly odorous; conditions: residual odor of cured film
[3] = Example 22: UV etching resist ink; parameters: key to Odor: 1: odorless; 2: odorous; 3: irritatingly odorous; key to Pattern integrity: Δ: there was no defect; □: there were a few defects; ▴: there were severe defects; conditions: for Odor: residual odor of cured film
[4] = Example 23: UV solder resist ink; parameters: key to Odor: 1: odorless; 2: odorous; 3: irritatingly odorous; key to Pattern integrity: Δ: there was no defect; □: there were a few defects; ▴: there were severe defects; key to Developability: ∘: no residue was observed in unexposed portions; ⊚: a small amount of residue was observed in unexposed portions, but the residual amount was acceptable; ●: significant residue was observed in unexposed portions; conditions: for Exposure demand mJ/cm^2: dry film 12-15 μm, 250-450 nm; for Odor: residual odor of cured film; for Yellowing: value of Δb
[5] = Example 21: UV coating on tin-plated steel plate; parameters: key to Odor: 1: odorless; 2: odorous; 3: irritatingly odorous; conditions: for Exposure demand mJ/cm^2: 25 μm, 250-450 nm; for Adherence: crosscut test GB9286-88; for Odor: residual odor of cured film; for Yellowing: value of Δb, colorimeter scan 400-700 nm, after baking at 80° C. for 24 h
[6] = Test of curing property: UV curing ink spray coated on ceramic tile; conditions: hundred-grid crosscut method, 5% photoinitiator, 60-80 μm, UV 80 mw/cm^2 for 50s

For `Cc1ccc2c(c1)C(C)(C)c1cc(C(=O)C(C)(C)N3CCOCC3)ccc1-2` [Compound 3], the “Exposure demand mJ/cm^2” value [1] was 120 mJ/cm^2, the Adherence [1] was “Level 0” and the Odor [1] was 1. The Yellowing [1] was 0.63, the Odor [2] was 1 and the Pattern integrity [3] was “Δ”. It also gave an Odor [3] of 1.

In the case of `CCCCC1(CCCC)c2cc(C(=O)c3ccccc3C)ccc2-c2ccc(C(=O)C(C)(C)N3CCOCC3)cc21` [Compound 10], the Pattern integrity [4] is reported as “Δ”, the “Exposure demand mJ/cm^2” value [4] is reported as 100 mJ/cm^2 and the Odor [4] is reported as 1. The Yellowing [4] was 0.75, the Odor [2] was 1 and the Pattern integrity [3] was “Δ”. It also gave an Odor [3] of 1.

In the case of `CCCCC1(CCCC)c2cc(C(=O)C(C)(C)N(CCC)CCC)ccc2-c2ccc(C(=O)C(C)(C)N(CCC)CCC)cc21` [Compound 25], the Pattern integrity [4] is reported as “Δ”, the “Exposure demand mJ/cm^2” value [4] is reported as 100 mJ/cm^2 and the Odor [4] is reported as 1. It also gave a Yellowing [4] of 0.81 and an Odor [2] of 1.

With `CN(C)C(C)(Cc1ccccc1)C(=O)c1ccc2c(c1)Cc1ccccc1-2` (stereo not drawn) [Compound 26] the Pattern integrity [4] was “Δ”, the “Exposure demand mJ/cm^2” value [4] was 110 mJ/cm^2 and the Odor [4] was 1. For the same molecule, the Yellowing [4] was 0.79, the “Exposure demand mJ/cm^2” value [5] was 110 mJ/cm^2 and the Adherence [5] was “Level 0”. It also gave an Odor [5] of 1, a Yellowing [5] of 0.79 and an Odor [2] of 1.

In the case of `CCCCC1(CCCC)c2ccccc2-c2ccc(C(=O)C(C)(Cc3ccccc3)N3CCOCC3)cc21` (stereo not drawn) [Compound 29], the Pattern integrity [4] is reported as “Δ”, the “Exposure demand mJ/cm^2” value [4] is reported as 100 mJ/cm^2 and the Odor [4] is reported as 1. For the same molecule, the Yellowing [4] was 0.73, the Odor [2] was 1 and the Pattern integrity [3] was “Δ”. For the same molecule, the Odor [3] was 1.

For `CCCCC1(CCCC)c2cc(C(=O)c3ccccc3)ccc2-c2ccc(C(=O)C(CC)(Cc3ccccc3)N3CCOCC3)cc21` (stereo not drawn) [Compound 33], the “Exposure demand mJ/cm^2” value [1] was 110 mJ/cm^2, the Adherence [1] was “Level 0” and the Odor [1] was 1. For the same molecule, the Yellowing [1] was 0.62 and the Odor [2] was 1.

For `C=CCC1(CC=C)c2ccccc2-c2ccc(C(=O)C(CC)(Cc3ccccc3)N(C)C)cc21` (stereo not drawn) [Compound 34], the Pattern integrity [4] was “Δ”, the “Exposure demand mJ/cm^2” value [4] was 100 mJ/cm^2 and the Odor [4] was 1. For the same molecule, the Yellowing [4] was 0.79, the “Exposure demand mJ/cm^2” value [5] was 110 mJ/cm^2 and the Adherence [5] was “Level 0”. For the same molecule, the Odor [5] was 1, the Yellowing [5] was 0.75 and the Odor [2] was 1. For the same molecule, the Adherence ([6]; black ink) was “Level 0”, the Adherence ([6]; red ink) was “Level 0” and the Adherence ([6]; yellow ink) was “Level 0”.

With `CCCCN(CCCC)c1ccc2c(c1)C(C)(C)c1cc(C(=O)C(CC)(Cc3ccccc3)N(C)C)ccc1-2` (stereo not drawn) [Compound 42] the Pattern integrity [4] was “Δ”, the “Exposure demand mJ/cm^2” value [4] was 110 mJ/cm^2 and the Odor [4] was 1. The Yellowing [4] was 0.72, the Odor [2] was 1 and the Pattern integrity [3] was “Δ”. It also gave an Odor [3] of 1.

In the case of `CC(C)(C(=O)c1ccc(-c2ccccc2)cc1)N1CCOCC1` [Compound 307, 1-([1,1-biphenyl]-4-yl)-2-methyl-2-morpholinylpropan-1-one, reference compound], the Pattern integrity [4] is reported as “▴”, the Developability ([4]; 0.5% sodium hydroxide, 30±2° C., 60s, SEM) is reported as “⊚” and the “Exposure demand mJ/cm^2” value [4] is reported as 190 mJ/cm^2. For the same molecule, the Odor [4] was 1, the Yellowing [4] was 1.03 and the “Exposure demand mJ/cm^2” value [5] was 220 mJ/cm^2. The Adherence [5] was “Level 1”, the Odor [5] was 1 and the Yellowing [5] was 1.33. The Odor [2] was 1, the Pattern integrity [3] was “▴” and the Odor [3] was 1.

In the case of `CSc1ccc(C(=O)C(C)(C)N2CCOCC2)cc1` [Compound 907, 2-methyl-1-[4-(methylthio)phenyl]-2-(4-morpholinyl)-1-acetone, reference compound], the “Exposure demand mJ/cm^2” value [1] is reported as 200 mJ/cm^2, the Adherence [1] is reported as “Level 1” and the Odor [1] is reported as 3. The Yellowing [1] was 2.34, the Pattern integrity [4] was “▴” and the “Exposure demand mJ/cm^2” value [4] was 180 mJ/cm^2. For the same molecule, the Odor [4] was 3, the Yellowing [4] was 2.54 and the “Exposure demand mJ/cm^2” value [5] was 200 mJ/cm^2. For the same molecule, the Adherence [5] was “Level 1”, the Odor [5] was 3 and the Yellowing [5] was 2.68. The Odor [2] was 3, the Adherence ([6]; black ink) was “Level 3” and the Adherence ([6]; blue ink) was “Level 2”. The Adherence ([6]; red ink) was “Level 3”, the Adherence ([6]; yellow ink) was “Level 2” and the Pattern integrity [3] was “▴”. It also gave an Odor [3] of 3.
